From patent publication US20110250213A1 (JN BIOSCIENCES, published 2011)
Results are given in words; binding and its absence hold for the method and conditions named. Some entries that bind do so weakly or less than the wild type.

Target: T1, cynomolgus CD122 (cynomolgus) (UniProt Q38J85)
T1 sequence (looked up): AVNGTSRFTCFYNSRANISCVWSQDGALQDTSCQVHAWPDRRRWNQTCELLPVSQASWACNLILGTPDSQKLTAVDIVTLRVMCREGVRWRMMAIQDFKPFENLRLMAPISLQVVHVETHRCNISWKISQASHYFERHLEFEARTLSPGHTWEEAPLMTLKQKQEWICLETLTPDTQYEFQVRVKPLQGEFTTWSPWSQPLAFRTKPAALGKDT
Assay: assay not specified

B1: ABC2 (antibody, mouse IgG1, V domains shown)
VH: EVKLVESGGGLVQPGGSLRLSCATSGFTFSDFYMEWVRQPPGKRLEWIAASRNKANDYTTEYSASVKGRFIVSRDTSQSILYLQMNALRAEDTAIYYCARSYYRYDGMDYWGQGTSVTVSS
VL: QVVLTQSPVIMSASPGEKVTMTCSAISSVSYMYWYQQKPGSSPRLLIYDTSNLVSGVPVRFSGSGSGTSYSLTISRMEAEDAATYYCQQWNTYPYTFGGGTKLEIK
notes: Mouse IgG1/kappa purified from hybridoma; also called mouse anti-human CD122 monoclonal antibody ABC2
In the case of B1, the binding is reported as “binds”.

B2: ABC101 (antibody, mouse IgG2b, V domains shown)
VH: DVQLQESGPGLVKPSQTVSLTCTVTGYSITNDNHWWNWIRQVSGSKLEWMGYIDSSGSSDNNPSLKSQISITRDTSKNQLFLQLNSVTIEDIGTYYCARGGGRDYYGMDYWGQGTSVTVSS
VL: DIVLTQSPASLAVSLGQRATISCRASQSVSTSSYSYVHWYQQKPGQPPKLLIKYASNLESGVPARFSGSGSGTDFTLNIHPVEEEDTATYYCQHSWDIPFTFGGGTKLEIK
notes: Mouse IgG2b/kappa purified from hybridoma; also called mouse anti-human CD122 monoclonal antibody ABC101
In the case of B2, the binding is reported as “binds”.
